# Assay results: PMC12456220
# Changes are numbered by the printed parent chain. Numbers in names are those of the source. No constants are given. Whether binding was seen depends on the method and setting. Binding seen in cells or lysates may run through a third protein. For some of these results: Binding calls can cover weak binding; strength is not graded here. Sequences can lack the tags named with a protein.
# B1: S-HA-Caspase-1 (porcine Caspase-1) (enzyme, UniProt Q9N2I1 1-404)
# chain: MADKVLKEKRRLFVRSVAMGTINGLLDELLETRVLNQEEVEIVRGENATVMDKARALIDSVIRKGPQACQICINHICGDDPHLAGVLELSTGSQSGKCLTVQESQAVVPPFPAPQTVQDNPVKPASSEPRGSLKLCPPDIAQRLWKEKSAEIYPIMGKSIRTRLALIICNTEFENLPRRDGADVDIRDMKILLEDLGYSVDVRENLTASDMAIELKAFAARPEHKSSDSTFLVLMSHGIQAGICGKKYSEEVPDVLEVNTVFQILNTLNCPSLKDKPKVIIIQACRGEKQGVVWIKDSVGPSGNSSLLAAEDFEYDAIKKAHIEKDFIAFCSSTPDNVSWRHPLLGSLFIIKLIKILQEHAWSCGLEEIFRKVRFSFELADGRAQMPTAERVTLTRSFYLFPGH
# B2: S-HA-Caspase-1-C285A (porcine Caspase-1, enzymatically inactive mutant) (enzyme, UniProt Q9N2I1 1-404)
# chain: B1 chain with C285A
# Experiments:
# [1] = target: T1, Flag-MAVS-B (porcine MAVS 183-524aa) (porcine) (UniProt A0ZVR1); experiment: co-IP
# T1 sequence: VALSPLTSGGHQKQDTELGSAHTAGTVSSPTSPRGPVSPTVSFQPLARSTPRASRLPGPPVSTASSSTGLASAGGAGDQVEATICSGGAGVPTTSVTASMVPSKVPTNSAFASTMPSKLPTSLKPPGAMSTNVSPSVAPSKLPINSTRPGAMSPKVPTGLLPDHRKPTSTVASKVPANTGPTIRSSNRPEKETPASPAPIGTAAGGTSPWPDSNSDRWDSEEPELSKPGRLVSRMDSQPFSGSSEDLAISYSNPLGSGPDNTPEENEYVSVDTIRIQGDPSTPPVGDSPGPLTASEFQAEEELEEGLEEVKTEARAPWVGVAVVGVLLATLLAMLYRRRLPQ
# [2] = target: S-Flag-MAVS (porcine mitochondrial antiviral signaling protein, full length) (porcine) (UniProt A0ZVR1); experiment: co-IP
Molecule,binding [1],binding [2]
Flag-IKK-ε (enzyme),no binding,–
Myc-TBK1 (enzyme),no binding,–
B1,–,binds
B2,–,binds
